Test results reported in patent US5981488 (dated 1999).
Strings that start with PEPTIDE1 are HELM notation: dots part the residues, brackets hold end groups and non-standard residues.

Assays:
[1] = general procedure: Boc solid-phase peptide synthesis; MBHA resin; symmetric anhydrides; preformed hydroxy benzotriazole esters for Asp, Gln, Arg; conditions: whole synthesis, scale 0.5 mmol
[2] = general procedure: Boc solid-phase peptide synthesis; MBHA resin (0.77 mmol/g); PAM resin for C-terminal acids; symmetric anhydrides; preformed hydroxy benzotriazole esters for Asp, Gln, Arg; conditions: whole synthesis

PEPTIDE1{H.M.E.G.T.F.T.S.D.V.S.S.Y.L.E.G.Q.A.A.K.E.F.I.A.W.L.V.K.G.R.[am]}$$$$V2.0
isolated mass [1]: 125 mg
final HPLC purity ([2]; analytical HPLC at pH 2.3, scale of the general procedure 0.5 mmol): 60%
isolated yield ([2]; scale of the general procedure 0.5 mmol): 10%
